# PubChem BioAssay AID1487 (National Center for Advancing Translational Sciences (NCATS), 2009)
# Several values for one entry are separate records, joined by “and”; a condition that tells them apart may be missing. Identical values can stand only once. The list shows a part of the results. These are further read-outs of the screen, such as a control signal, another cell line or another target. No call is given for them. Compounds called inactive in the main read-out are mostly missing here. Words in brackets tell the shape of the fitted curve; partial curves, single points and poor fits give uncertain potencies.
# Test: qHTS Assay for Modulators of Lamin A Splicing
# Conditions: HeLa LMNA splicing GFP/RFP minigene ratio, 48 h
# Method in brief: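 Read-out is the ratio of GFP to DsRed2 object intensity, acquired by 488 nm laser-scanning cytometry on HeLa lamin A-EGFP minigene reporter cells. Compound incubation 48 hrs at 37 °C in Opti-MEM with 2% FBS; DMSO 0.5% final.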
# [1] = measured here: GFP splicing reporter channel
# [2] = measured here: RFP viability control channel
Structure (SMILES),AC50 [1],AC50 [2]
COc1cccc(CNS(=O)(=O)c2ccc3c(c2)C(C(C)C)C(=O)N3)c1 (stereo not given),"0.00447 µM [falling, full curve, poor fit]","0.00891 µM [falling, full curve, poor fit]"
COCCN1C=C2C(=O)C(C)(OC(=O)CCC(=O)OC)C(=O)C(Br)=C2C=C1c1ccc(OC)cc1 (stereo not given),"0.708 µM [rising, full curve, poor fit]","1.58 µM [rising, partial curve, poor fit]"
Cc1ccc(NC(=O)CC2Sc3ccc(C(F)(F)F)cc3NC2=O)cc1 (stereo not given),"0.00501 µM [falling, full curve, poor fit]","0.00501 µM [falling, full curve, poor fit]"
COc1ccc(-c2nc3cnc(N4CCN(C)CC4)nc3n(Cc3cccc(OC)c3)c2=O)cc1,"22.4 µM [falling, single point]","12.6 µM [falling, single point]"
O=C(Nc1ccc(Cc2ccncc2)cc1)c1ccco1,"11.2 µM [rising, single point]","14.1 µM [rising, single point]"
Cc1cc(C(=O)N/N=C/c2ccc(-c3ccccc3Cl)o2)n[nH]1,–,"10 µM [rising, partial curve]"
O=C1NC(=O)/C(=C\c2ccccc2OCc2ccc([N+](=O)[O-])cc2)N1,–,"35.5 µM [rising, single point]"
CCCCCOc1ccc(CSC(=N)N)cc1[N+](=O)[O-],–,"14.1 µM [rising, single point]"
COCCN(CCOC)S(=O)(=O)c1ccc(C(=O)Nc2nc3c(s2)CCc2ccccc2-3)cc1,"10 µM [rising, partial curve, poor fit]","7.08 µM [rising, full curve]"
Cc1ccc(CNC(=O)CCCCCNc2nc(=S)[nH]c3ccccc23)cc1,"11.2 µM [falling, single point]","31.6 µM [falling, single point]"
O=C(NC1CCS(=O)(=O)C1)c1cn(-c2ccccc2)nc1-c1ccccc1 (stereo not given),–,"11.2 µM [rising, partial curve]"
Cn1c(SCc2nc(-c3ccc(Br)cc3)no2)nnc1-c1ccco1,"11.2 µM [rising, partial curve, poor fit]","22.4 µM [rising, single point]"
C=CCNC(=O)c1onc(CSc2ccccc2CC)c1C(=O)O,"3.98 µM [falling, single point]",–
CC(C)c1onc(C(=O)Nc2sc3c(c2C#N)CCC3)c1[N+](=O)[O-],"2.24 µM [falling, partial curve, poor fit]",–
CC(C)(C)[C@]1(O)CCN2CC3c4ccccc4CCc4cccc(c43)[C@@H]2C1 (stereo not given in full),"14.1 µM [falling, single point]","5.62 µM [falling, partial curve, poor fit] and 22.4 µM [falling, single point]"
Cc1cc(C)c(C2C3=C(Nc4c2c(C)nn4-c2ccccn2)c2ccccc2C3=O)c(C)c1 (stereo not given),"14.1 µM [rising, single point]","15.8 µM [rising, partial curve]"

Structure (SMILES),AC50 [1],AC50 [2]
Cc1ncc(CO)c(C=O)c1O,"1.26 µM [falling, single point]","31.6 µM [falling, single point]"
Nc1ncc(S(=O)(=O)Nc2ccc(F)cc2F)cn1,–,"0.708 µM [falling, full curve, poor fit]"
Cc1ccc(Cn2c(NCCc3ccccc3)nc3c2c(=O)n(C)c(=O)n3C)cc1,–,"10 µM [rising, partial curve]"
Cc1ccc(Cn2nnc3c(=O)[nH]c(C4CCN(S(=O)(=O)c5ccc(C)cc5)CC4)nc32)cc1,"35.5 µM [rising, single point]",–
COc1nccnc1NS(=O)(=O)c1ccc(NC(=S)NC(=O)/C=C/c2ccccc2)cc1,–,"31.6 µM [rising, single point]"
CSc1ccc(Cl)c(C(=O)Nc2ccc(C)cn2)c1,"6.31 µM [falling, single point]","6.31 µM [falling, single point]"
C=CCn1cccc(/C=C/C(=O)c2ccc(C(C)(C)C)cc2)c1=S,"35.5 µM [falling, single point]","35.5 µM [falling, single point]"
O=C(NC1=NCCS1)c1ccccc1OCc1ccc(F)cc1,"35.5 µM [falling, single point]","35.5 µM [falling, single point]"
O=C(/C=C/c1ccc(Cl)cc1)Nc1ccc(N2CCOCC2)cc1,"0.00891 µM [falling, full curve, poor fit]","0.00501 µM [falling, full curve, poor fit]"
O=C(COCc1cc(-c2cccs2)on1)N1CCN(c2ccccc2)CC1,"0.0447 µM [falling, full curve]","0.0282 µM [falling, full curve]"
CC(C)OC(=O)CSc1nc(Cc2ccccc2)nc2ccccc12,"10 µM [falling, single point]","10 µM [falling, single point]"
Fc1ccc(NCc2nnc3n2CCCCC3)cc1Cl,–,"0.355 µM [falling, partial curve, poor fit]"
COc1ccc(-c2cc(C(=O)NN)[nH]n2)cc1,–,"3.98 µM [rising, partial curve]"
CCCCCCCCNC(=O)c1ccc(C)cc1,"3.55 µM [falling, partial curve, poor fit]",–
Cc1cc(C(=O)N/N=C/c2cccc([N+](=O)[O-])c2)c(C)n1-c1ccccc1,"0.02 µM [rising, full curve, poor fit]","0.0282 µM [rising, full curve, poor fit]"
COc1ccc2c(c1)c(=O)oc1cc(OCC(=O)N3CCCC(C)C3)ccc12 (stereo not given),–,"12.6 µM [rising, partial curve]"
